Some of these results come from one statement about several compounds together.
System: hairy fleabane
Assay: Example 6 Shafter almond orchard: hairy fleabane control
Assay type: in vivo, Conyza bonariensis
Conditions: 180 DAT, 0.4 and 0.8 lb fluridone/ac, flumioxazin
Description: Field trials were conducted in California to determine sweet almond (Prunus dulcis) tolerance to fluridone and efficacy of fluridone in an irrigated orchard environment. Trial locations included a two-year old almond stand in Kerman, Calif. and a six-year old stand in Shafter, Calif. The soil in both locations is classified as a sandy loam. Applications prior to emergence of weeds (PRE) of herbicides were made in the month of January in Kerman and in the month of January in Shafter. […] Rainfall (0.32 in (about 0.813 cm)) and irrigation (1.5 in (about 3.81 cm)) one day after PRE applications were used to incorporate herbicides into the soil at the Kerman and Shafter locations, respectively. Both sites were irrigated as needed during the growing season to avoid drought conditions. Visual evaluations of crop injury and weed control were made monthly on a 0 to 100% scale. Postemergent (POST) broadcast applications of a non-selective, contact herbicide was broadcast across all treatments in Kerman prior to the 90 days after treatment and 119 days after treatment (DAT) ratings. Thus, data from those ratings dates was not evaluated. No POST applications were made in Shafter.

In the case of “1-methyl-3-phenyl-5-[3-(trifluromethyl)phenyl]-4(1H)-pyridone [fluridone]”, the hairy fleabane control is reported as 94-100%.

— US11026423B2, “Herbicidal compositions and methods” (SePRO Corporation, priority 2013, dated 2021)
